## Assay results

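A counter-screen in EP4-overexpressing cells measuring cyclic AMP with a time-resolved FRET kit under weak PGE2 stimulation. Compounds were tested at 20 µM final. A low (about EC15) PGE2 dose was present. Percent cAMP induction as a fraction of the 1 µM PGE2 response, averaged over three replicates; a higher value means more cAMP.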

Values are in %. Common to all entries: measured here: EP4 receptor counter-screen. Part of the compounds only, not a random draw; the main read-out is not listed here.

compound,tested on / at,cAMP induction (%)
Cc1ccc(NP(=O)(Oc2ccccc2F)Oc2ccccc2F)cc1C,-,-21.92
CCSc1cc(N2CCOCC2)nc(-c2ccccc2)n1,percent of 1 uM PGE2 response; plus low (about EC15) PGE2 agonist,6.977
O=C1C2C3c4ccccc4C(c4ccccc43)[C@@H]2c2nc3ccccc3n21 (stereo partly shown),percent of 1 uM PGE2 response; plus low (about EC15) PGE2 agonist,-0.2633
Cc1ccc(CN2C(=O)CN=C(c3ccccc3)c3ccccc32)cc1,-,-4.483
CC(C)c1ccc(/C=N/Nc2cc(N3CCOCC3)nc(N3CCOCC3)n2)cc1,percent of 1 uM PGE2 response; plus low (about EC15) PGE2 agonist,-5.45
CN(CC(=O)Nc1ccccc1Oc1ccccc1)Cc1ccccc1F,percent of 1 uM PGE2 response; plus low (about EC15) PGE2 agonist,-3.127
CCCOc1ccccc1Cn1c(=O)oc2ccc(C)cc21,percent of 1 uM PGE2 response; plus low (about EC15) PGE2 agonist,-5.337
CCCC/C(=N\NC(=O)c1ccc(Br)o1)c1ccccc1,percent of 1 uM PGE2 response; plus low (about EC15) PGE2 agonist,-0.5067
CC(=O)Nc1ccc(C2=NN(c3ccccc3)C(c3cccs3)C2)cc1 (stereo not shown),percent of 1 uM PGE2 response; plus low (about EC15) PGE2 agonist,-1.41
CCN(c1cccc(C)c1)S(=O)(=O)c1ccc2c3c(cccc13)C(=O)N2,percent of 1 uM PGE2 response; plus low (about EC15) PGE2 agonist,-10.94
CC(C)OC(=O)CSc1nc(Cc2ccccc2)nc2ccccc12,percent of 1 uM PGE2 response; plus low (about EC15) PGE2 agonist,-4.78
O=C(O)c1ccc(CNCc2cccc(Cl)c2Cl)cc1,percent of 1 uM PGE2 response; plus low (about EC15) PGE2 agonist,-13.16
CCOC(=O)N1CCC(=C2c3ccc(Cl)cc3CCc3cccnc32)CC1,percent of 1 uM PGE2 response; plus low (about EC15) PGE2 agonist,-6.153
O=C(O)c1ccc(C(=O)O)c(C(=O)Nc2ccc3c(c2)Cc2ccccc2-3)c1,percent of 1 uM PGE2 response; plus low (about EC15) PGE2 agonist,-3.943
CCN(CC)c1ccc(/C=C2\C(=O)c3ccc(C(=O)O)cc3C2=O)cc1,percent of 1 uM PGE2 response; plus low (about EC15) PGE2 agonist,-2.247
C[C@H](C(=O)c1ccccc1)[C@@H](c1ccccc1)N1CCOCC1,percent of 1 uM PGE2 response; plus low (about EC15) PGE2 agonist,1.837
CCCSc1nc(N2CCOCC2)c2c(c1C#N)CCCC2,percent of 1 uM PGE2 response; plus low (about EC15) PGE2 agonist,4.577
CC(=O)Nc1sc2c(c1C(c1cccs1)N1CCOCC1)CCCC2 (stereo not shown),percent of 1 uM PGE2 response; plus low (about EC15) PGE2 agonist,8.647
Cc1ccc(S(=O)(=O)c2ccc(Oc3cccc(C)c3)cc2)cc1,percent of 1 uM PGE2 response; plus low (about EC15) PGE2 agonist,-13.44
Cc1ccc(N(CC(=O)N/N=C/c2ccc(OC3CSC3)cc2)S(=O)(=O)c2ccccc2)cc1,percent of 1 uM PGE2 response; plus low (about EC15) PGE2 agonist,4.43
O=C(O)CSc1ccc2ccccc2n1,percent of 1 uM PGE2 response; plus low (about EC15) PGE2 agonist,49.77
COc1ccc(C2=Nn3c(nnc3-c3ccccc3OC)SC2)cc1OC,percent of 1 uM PGE2 response; plus low (about EC15) PGE2 agonist,-10.58
c1ccc(Cn2c(-c3ccccc3)nc3nc4ccccc4nc32)cc1,percent of 1 uM PGE2 response; plus low (about EC15) PGE2 agonist,-2.92
CCOC(=O)c1cc(CC)sc1NC(=O)c1cc(OC)c(OC)c(OC)c1,percent of 1 uM PGE2 response; plus low (about EC15) PGE2 agonist,-13.72
CCOc1ccc(OCC)c(NC(=O)CN2CCN(c3cccc(C)c3)CC2)c1,percent of 1 uM PGE2 response; plus low (about EC15) PGE2 agonist,0.3333
CCOC(=O)c1c(NC(=O)CSc2nnc(N)s2)sc(C)c1-c1ccc(C)cc1,percent of 1 uM PGE2 response; plus low (about EC15) PGE2 agonist,-18.79
O=C(Nc1ccccc1-c1nc2ccccc2s1)c1ccc(Br)o1,percent of 1 uM PGE2 response; plus low (about EC15) PGE2 agonist,25.19
c1ccc(-c2n[nH]nc2-c2ccccc2)cc1,percent of 1 uM PGE2 response; plus low (about EC15) PGE2 agonist,-8.177
O=c1cc(N2CCCCC2)c(-c2ccccc2)nn1Cc1c(Cl)cccc1Cl,percent of 1 uM PGE2 response; plus low (about EC15) PGE2 agonist,-16.05
CC(C)C(=O)c1cc2c(cc1NC(=O)c1ccccc1)OCCO2,percent of 1 uM PGE2 response; plus low (about EC15) PGE2 agonist,12.99
Cc1oc(-c2ccccc2)cc1C(=O)Nc1cccc(/C=C/C(=O)O)c1,percent of 1 uM PGE2 response; plus low (about EC15) PGE2 agonist,-10.8
Cc1cc(SCCC(=O)O)nc2c(C)cccc12,percent of 1 uM PGE2 response; plus low (about EC15) PGE2 agonist,53.97
CCOC(=O)c1c(NC(=O)c2ccoc2C)sc(C(=O)N(C)C)c1C,percent of 1 uM PGE2 response; plus low (about EC15) PGE2 agonist,-0.2967
CCC(C)(C)n1nnnc1C(c1ccncc1)N1CCC(Cc2ccccc2)CC1 (stereo not shown),percent of 1 uM PGE2 response; plus low (about EC15) PGE2 agonist,7.51
CCCCCc1ccc(-c2ccc(=O)[nH]n2)cc1,percent of 1 uM PGE2 response; plus low (about EC15) PGE2 agonist,15.18
C=CCC1(C)C(=O)N(c2ccccc2)c2ccccc21 (stereo not shown),percent of 1 uM PGE2 response; plus low (about EC15) PGE2 agonist,1.227
CC(C)c1nc(SCc2c(F)cccc2Cl)c2c(=O)n(C)c(=O)n(C)c2n1,percent of 1 uM PGE2 response; plus low (about EC15) PGE2 agonist,-5.767
CC(C)NC(=S)N/N=C1\CCCCC1C1CCCCC1 (stereo not shown),percent of 1 uM PGE2 response; plus low (about EC15) PGE2 agonist,20.98
COc1ccc(-c2cc(C(F)(F)F)nc(N3CCCCC3)n2)cc1OC,percent of 1 uM PGE2 response; plus low (about EC15) PGE2 agonist,-11.91
FC(F)(F)c1cc(CO[C@H]2CCCN[C@H]2c2ccccc2)cc(C(F)(F)F)c1,percent of 1 uM PGE2 response; plus low (about EC15) PGE2 agonist,6.057
CCCOP(=O)(OCCC)c1nc(-c2ccccc2)oc1NCc1ccccc1,percent of 1 uM PGE2 response; plus low (about EC15) PGE2 agonist,1.82
CSc1nnc(-c2cc3c(s2)-c2ccccc2CC3)o1,percent of 1 uM PGE2 response; plus low (about EC15) PGE2 agonist,8.86
N#Cc1c(-c2ccco2)nc(SCc2ccc(F)cc2)[nH]c1=O,percent of 1 uM PGE2 response; plus low (about EC15) PGE2 agonist,67.48
FC(F)(F)c1cc(-c2ccccc2)nc2nc(N3CCOCC3)sc12,percent of 1 uM PGE2 response; plus low (about EC15) PGE2 agonist,7.92
CCCCNCC(=O)Nc1sc(C)c(C)c1C(=O)OCC,percent of 1 uM PGE2 response; plus low (about EC15) PGE2 agonist,-6.847
CCCCC(=O)Nc1sc2c(c1C(=O)OCC)CCC(C=O)=C2Cl,percent of 1 uM PGE2 response; plus low (about EC15) PGE2 agonist,-12.11
CC(=O)N1N=C2/C(=C/c3ccccc3)CCCC2C1c1ccccc1 (stereo not shown),percent of 1 uM PGE2 response; plus low (about EC15) PGE2 agonist,1.5
CCC1C/C(=C/c2ccco2)C(=O)/C(=C/c2ccco2)C1 (stereo not shown),percent of 1 uM PGE2 response; plus low (about EC15) PGE2 agonist,-7.333
Nc1ccc(Br)cc1C(=O)c1ccccc1,-,15
CC(C)CCn1c(-c2nonc2N)nc2ccccc21,percent of 1 uM PGE2 response; plus low (about EC15) PGE2 agonist,-1.527
O=C(O)c1ccc(-c2ccccc2Cl)o1,percent of 1 uM PGE2 response; plus low (about EC15) PGE2 agonist,-11.14
C[C@]12CCC3C(CC[C@H]4C[C@@H](Cl)CC[C@]34C)C1CCC2=O (stereo partly shown),percent of 1 uM PGE2 response; plus low (about EC15) PGE2 agonist,-2.66
CCSc1nnc(-c2ccc(Cl)cc2)c2ccccc12,percent of 1 uM PGE2 response; plus low (about EC15) PGE2 agonist,1.063
CCc1ccccc1NC1c2ccccc2C(=O)N1c1cc(C)ccn1 (stereo not shown),percent of 1 uM PGE2 response; plus low (about EC15) PGE2 agonist,5.26
COc1ccc2cc(CN(Cc3ccco3)C(c3nnnn3C3CCCCC3)C(C)C)c(=O)[nH]c2c1 (stereo not shown),percent of 1 uM PGE2 response; plus low (about EC15) PGE2 agonist,10.14
COc1ccc(C(=O)NCC(=O)n2nc(C)cc2C)cc1OC,percent of 1 uM PGE2 response; plus low (about EC15) PGE2 agonist,6.69
CCSc1nc2sc3c(c2c(=O)n1CC)CC(C)(C)OC3,percent of 1 uM PGE2 response; plus low (about EC15) PGE2 agonist,4.92
CCOc1cc(/C=N/NC(N)=O)ccc1OC(=O)c1ccc(C)cc1,percent of 1 uM PGE2 response; plus low (about EC15) PGE2 agonist,11.88
CCOC(=O)c1c(-c2ccccc2)oc2ccc(OC)cc12,percent of 1 uM PGE2 response; plus low (about EC15) PGE2 agonist,5.74
O=C(Oc1ccc(-c2nccc(-c3ccccn3)n2)cc1)c1cccc(C(F)(F)F)c1,percent of 1 uM PGE2 response; plus low (about EC15) PGE2 agonist,-15.43
Cc1nc(N(C)C)c2sc(=S)n(Cc3ccccc3)c2n1,percent of 1 uM PGE2 response; plus low (about EC15) PGE2 agonist,1.243
COc1ccccc1/C=C(/C(=O)OCC(=O)Nc1ccccc1C(C)C)c1ccccc1,percent of 1 uM PGE2 response; plus low (about EC15) PGE2 agonist,-5.107
COc1ccc(C2=NN(C(=O)c3cccs3)C(c3ccccc3O)C2)cc1 (stereo not shown),percent of 1 uM PGE2 response; plus low (about EC15) PGE2 agonist,-15.27
Cc1ccc(-c2cccc(C(=O)NCc3ccccc3)n2)c2ccccc12,percent of 1 uM PGE2 response; plus low (about EC15) PGE2 agonist,-15.31
CSc1nnc(CSCc2ccc(Cl)cc2Cl)n1-c1ccccc1,percent of 1 uM PGE2 response; plus low (about EC15) PGE2 agonist,-10.97
CCOC(=O)c1c(N)nn(C(=O)C(C)(C)C)c1-c1ccccc1,percent of 1 uM PGE2 response; plus low (about EC15) PGE2 agonist,6.89
C#CCN1C(C)=C(C(=O)OC)C(c2cccc([N+](=O)[O-])c2)C(C(=O)OCC)=C1C (stereo not shown),percent of 1 uM PGE2 response; plus low (about EC15) PGE2 agonist,6.297
O=C(/C(=C/O)N=Nc1ccccc1Cl)c1ccccc1,percent of 1 uM PGE2 response; plus low (about EC15) PGE2 agonist,-23.5
O=C(Nc1ccccc1N1CCCCC1)c1cccc([N+](=O)[O-])c1,percent of 1 uM PGE2 response; plus low (about EC15) PGE2 agonist,-2.52
Cc1cc(Oc2ccccc2F)nc(NCc2ccccc2)n1,percent of 1 uM PGE2 response; plus low (about EC15) PGE2 agonist,-7.16
Cc1ccc(C2CC(c3cccs3)=NN2C(=O)c2ccc(Br)o2)cc1 (stereo not shown),percent of 1 uM PGE2 response; plus low (about EC15) PGE2 agonist,-15.49
CCCCN1C=C(C(=O)OC)C(c2ccccc2Cl)C(C(=O)OC)=C1,percent of 1 uM PGE2 response; plus low (about EC15) PGE2 agonist,-8.107
O=C1CCC(c2ccccc2)=NN1Cc1c(F)cccc1Cl,percent of 1 uM PGE2 response; plus low (about EC15) PGE2 agonist,-8.69
CS(=O)(=O)N(Cc1ccccc1)c1ccccc1C(=O)Nc1ccccc1C(=O)NCc1ccco1,percent of 1 uM PGE2 response; plus low (about EC15) PGE2 agonist,9.167
CC(=O)OC[C@@]1(O)C[C@@]23CCC4c5ccoc5CC[C@]4(C)C2CC[C@@H]1C3 (stereo partly shown),percent of 1 uM PGE2 response; plus low (about EC15) PGE2 agonist,0.4067
COc1ccc(-n2c(COc3ccc(Cl)cc3)nnc2SCc2ccc(C#N)cc2)cc1,percent of 1 uM PGE2 response; plus low (about EC15) PGE2 agonist,-8.363
Cc1ccc(C(=O)O)cc1NC(=S)NC(=O)c1ccc(-c2ccccc2)cc1,percent of 1 uM PGE2 response; plus low (about EC15) PGE2 agonist,-6.443
CCOC(=O)c1sc(NC(=O)CN2C(=O)c3cccc4cccc(c34)C2=O)nc1C,percent of 1 uM PGE2 response; plus low (about EC15) PGE2 agonist,5.24
O=c1n(Cc2ccccc2F)c2ccccc2n1Cc1ccccc1F,percent of 1 uM PGE2 response; plus low (about EC15) PGE2 agonist,-4.04
O=C(CNCc1ccccc1Cl)Nc1ccccc1N1CCCCC1,percent of 1 uM PGE2 response; plus low (about EC15) PGE2 agonist,-3.583
Oc1ccc2ccccc2c1Cc1c(O)ccc2ccccc12,percent of 1 uM PGE2 response; plus low (about EC15) PGE2 agonist,-7.187
CCC(C)N(C)C(=O)c1cc2ccccc2c(-c2ccccc2Cl)n1 (stereo not shown),percent of 1 uM PGE2 response; plus low (about EC15) PGE2 agonist,-8.377
COc1cc2ccccc2cc1C(=O)NC(=S)Nc1cc(C(=O)O)ccc1C,percent of 1 uM PGE2 response; plus low (about EC15) PGE2 agonist,-10.04
c1ccc(Oc2nc3ccccc3n3cccc23)cc1,percent of 1 uM PGE2 response; plus low (about EC15) PGE2 agonist,17.04
CCOC(=O)c1ccccc1NC(=O)C(C)Oc1ccccc1 (stereo not shown),percent of 1 uM PGE2 response; plus low (about EC15) PGE2 agonist,-9.203
CC(C)CCn1c(N2CCN(c3cccc(Cl)c3)CC2)nc2c1c(=O)[nH]c(=O)n2C,percent of 1 uM PGE2 response; plus low (about EC15) PGE2 agonist,-13.45
CCOC(=O)C1=C(N)N2C(=O)C(C)SC2=C(C(=O)OC)C1c1ccccc1OC (stereo not shown),percent of 1 uM PGE2 response; plus low (about EC15) PGE2 agonist,-5.207
Cn1nc(-c2ccccc2)c(-c2nc(-c3cccc(C(F)(F)F)c3)no2)c1Cl,percent of 1 uM PGE2 response; plus low (about EC15) PGE2 agonist,1.73
CC(C)n1c2ccccc2c2nc3ccccc3nc21,percent of 1 uM PGE2 response; plus low (about EC15) PGE2 agonist,-5.133
Cc1nc2ccccn2c1C(=O)CSc1ccc(Cl)cc1Cl,percent of 1 uM PGE2 response; plus low (about EC15) PGE2 agonist,-2.043
CCOc1cccc(CNc2ccc(O)cc2)c1OCc1ccccc1Cl,percent of 1 uM PGE2 response; plus low (about EC15) PGE2 agonist,-9.003
Cc1cccc(N=N/C(=C\O)C(=O)c2ccc(Br)cc2)c1,percent of 1 uM PGE2 response; plus low (about EC15) PGE2 agonist,-11.99
CCOc1nc2cccc(C(=O)OC(C)OC(=O)OC3CCCCC3)c2n1Cc1ccc(-c2ccccc2-c2nn[nH]n2)cc1 (stereo not shown),percent of 1 uM PGE2 response; plus low (about EC15) PGE2 agonist,2.373
CCOC(=O)CNC(=O)c1ccc2c(c1)OCCO2,percent of 1 uM PGE2 response; plus low (about EC15) PGE2 agonist,-1.163
CC(NC(c1ccccc1)c1ccccc1)C(=O)N1CCCc2ccccc21 (stereo not shown),percent of 1 uM PGE2 response; plus low (about EC15) PGE2 agonist,-11.43

For reference, 10 entries once more:

compound,tested on / at,cAMP induction (%)
Cc1ccc(-c2cccc(C(=O)NCc3ccccc3)n2)c2ccccc12,percent of 1 uM PGE2 response; plus low (about EC15) PGE2 agonist,-15.31
Cc1nc2ccccn2c1C(=O)CSc1ccc(Cl)cc1Cl,percent of 1 uM PGE2 response; plus low (about EC15) PGE2 agonist,-2.043
O=C1CCC(c2ccccc2)=NN1Cc1c(F)cccc1Cl,percent of 1 uM PGE2 response; plus low (about EC15) PGE2 agonist,-8.69
CCCC/C(=N\NC(=O)c1ccc(Br)o1)c1ccccc1,percent of 1 uM PGE2 response; plus low (about EC15) PGE2 agonist,-0.5067
CCCCNCC(=O)Nc1sc(C)c(C)c1C(=O)OCC,percent of 1 uM PGE2 response; plus low (about EC15) PGE2 agonist,-6.847
FC(F)(F)c1cc(CO[C@H]2CCCN[C@H]2c2ccccc2)cc(C(F)(F)F)c1,percent of 1 uM PGE2 response; plus low (about EC15) PGE2 agonist,6.057
CCSc1nc2sc3c(c2c(=O)n1CC)CC(C)(C)OC3,percent of 1 uM PGE2 response; plus low (about EC15) PGE2 agonist,4.92
O=C(Nc1ccccc1N1CCCCC1)c1cccc([N+](=O)[O-])c1,percent of 1 uM PGE2 response; plus low (about EC15) PGE2 agonist,-2.52
O=C(O)c1ccc(-c2ccccc2Cl)o1,percent of 1 uM PGE2 response; plus low (about EC15) PGE2 agonist,-11.14
CCCOP(=O)(OCCC)c1nc(-c2ccccc2)oc1NCc1ccccc1,percent of 1 uM PGE2 response; plus low (about EC15) PGE2 agonist,1.82

Data taken from PubChem BioAssay AID1080, deposited by Emory University Molecular Libraries Screening Center (2008).